The values below come from the supplement of paper PMC10849652.

Amino acid sequences for entries named in this document (tags omitted). A change or cut given only in a name is not applied to a line headed by its entry.
UniProt Q96KC8: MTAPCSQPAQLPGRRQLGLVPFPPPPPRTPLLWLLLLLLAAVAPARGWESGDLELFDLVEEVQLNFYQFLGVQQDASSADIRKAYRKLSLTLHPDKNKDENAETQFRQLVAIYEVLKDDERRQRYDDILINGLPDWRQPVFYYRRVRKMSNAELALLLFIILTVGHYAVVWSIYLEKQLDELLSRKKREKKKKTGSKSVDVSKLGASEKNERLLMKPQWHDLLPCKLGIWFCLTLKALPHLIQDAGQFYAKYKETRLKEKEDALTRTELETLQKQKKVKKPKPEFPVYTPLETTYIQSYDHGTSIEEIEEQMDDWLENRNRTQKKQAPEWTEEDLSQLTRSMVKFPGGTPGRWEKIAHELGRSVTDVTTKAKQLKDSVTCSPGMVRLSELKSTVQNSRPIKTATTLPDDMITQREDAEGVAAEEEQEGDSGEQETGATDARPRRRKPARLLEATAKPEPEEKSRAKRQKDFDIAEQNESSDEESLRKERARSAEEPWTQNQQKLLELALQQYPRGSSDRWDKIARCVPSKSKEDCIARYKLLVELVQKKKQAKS
UniProt P25685, whole entry, looked up: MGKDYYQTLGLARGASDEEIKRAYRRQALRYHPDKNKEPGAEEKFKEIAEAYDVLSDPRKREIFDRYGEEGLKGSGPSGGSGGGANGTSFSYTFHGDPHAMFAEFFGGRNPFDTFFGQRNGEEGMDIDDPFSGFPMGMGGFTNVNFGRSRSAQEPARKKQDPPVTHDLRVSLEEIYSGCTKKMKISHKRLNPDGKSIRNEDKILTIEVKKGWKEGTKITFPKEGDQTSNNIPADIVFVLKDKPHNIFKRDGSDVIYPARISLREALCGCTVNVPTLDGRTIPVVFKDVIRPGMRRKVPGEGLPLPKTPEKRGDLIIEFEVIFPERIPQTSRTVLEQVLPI
UniProt Q5JPH6: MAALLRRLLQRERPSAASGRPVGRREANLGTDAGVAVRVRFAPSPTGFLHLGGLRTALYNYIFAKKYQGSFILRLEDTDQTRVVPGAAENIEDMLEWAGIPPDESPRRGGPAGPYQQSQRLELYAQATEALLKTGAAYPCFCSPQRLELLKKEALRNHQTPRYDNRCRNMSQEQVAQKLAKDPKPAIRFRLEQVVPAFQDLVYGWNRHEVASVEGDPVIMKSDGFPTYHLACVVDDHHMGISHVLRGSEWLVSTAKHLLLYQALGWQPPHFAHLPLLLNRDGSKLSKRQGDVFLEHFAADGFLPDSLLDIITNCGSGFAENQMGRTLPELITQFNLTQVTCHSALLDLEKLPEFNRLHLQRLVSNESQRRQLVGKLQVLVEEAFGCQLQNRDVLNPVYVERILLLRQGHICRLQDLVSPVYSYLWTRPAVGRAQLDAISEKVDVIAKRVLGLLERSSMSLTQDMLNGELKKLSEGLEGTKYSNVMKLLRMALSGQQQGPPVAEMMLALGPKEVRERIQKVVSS
UniProt Q5VYK3, whole entry, looked up: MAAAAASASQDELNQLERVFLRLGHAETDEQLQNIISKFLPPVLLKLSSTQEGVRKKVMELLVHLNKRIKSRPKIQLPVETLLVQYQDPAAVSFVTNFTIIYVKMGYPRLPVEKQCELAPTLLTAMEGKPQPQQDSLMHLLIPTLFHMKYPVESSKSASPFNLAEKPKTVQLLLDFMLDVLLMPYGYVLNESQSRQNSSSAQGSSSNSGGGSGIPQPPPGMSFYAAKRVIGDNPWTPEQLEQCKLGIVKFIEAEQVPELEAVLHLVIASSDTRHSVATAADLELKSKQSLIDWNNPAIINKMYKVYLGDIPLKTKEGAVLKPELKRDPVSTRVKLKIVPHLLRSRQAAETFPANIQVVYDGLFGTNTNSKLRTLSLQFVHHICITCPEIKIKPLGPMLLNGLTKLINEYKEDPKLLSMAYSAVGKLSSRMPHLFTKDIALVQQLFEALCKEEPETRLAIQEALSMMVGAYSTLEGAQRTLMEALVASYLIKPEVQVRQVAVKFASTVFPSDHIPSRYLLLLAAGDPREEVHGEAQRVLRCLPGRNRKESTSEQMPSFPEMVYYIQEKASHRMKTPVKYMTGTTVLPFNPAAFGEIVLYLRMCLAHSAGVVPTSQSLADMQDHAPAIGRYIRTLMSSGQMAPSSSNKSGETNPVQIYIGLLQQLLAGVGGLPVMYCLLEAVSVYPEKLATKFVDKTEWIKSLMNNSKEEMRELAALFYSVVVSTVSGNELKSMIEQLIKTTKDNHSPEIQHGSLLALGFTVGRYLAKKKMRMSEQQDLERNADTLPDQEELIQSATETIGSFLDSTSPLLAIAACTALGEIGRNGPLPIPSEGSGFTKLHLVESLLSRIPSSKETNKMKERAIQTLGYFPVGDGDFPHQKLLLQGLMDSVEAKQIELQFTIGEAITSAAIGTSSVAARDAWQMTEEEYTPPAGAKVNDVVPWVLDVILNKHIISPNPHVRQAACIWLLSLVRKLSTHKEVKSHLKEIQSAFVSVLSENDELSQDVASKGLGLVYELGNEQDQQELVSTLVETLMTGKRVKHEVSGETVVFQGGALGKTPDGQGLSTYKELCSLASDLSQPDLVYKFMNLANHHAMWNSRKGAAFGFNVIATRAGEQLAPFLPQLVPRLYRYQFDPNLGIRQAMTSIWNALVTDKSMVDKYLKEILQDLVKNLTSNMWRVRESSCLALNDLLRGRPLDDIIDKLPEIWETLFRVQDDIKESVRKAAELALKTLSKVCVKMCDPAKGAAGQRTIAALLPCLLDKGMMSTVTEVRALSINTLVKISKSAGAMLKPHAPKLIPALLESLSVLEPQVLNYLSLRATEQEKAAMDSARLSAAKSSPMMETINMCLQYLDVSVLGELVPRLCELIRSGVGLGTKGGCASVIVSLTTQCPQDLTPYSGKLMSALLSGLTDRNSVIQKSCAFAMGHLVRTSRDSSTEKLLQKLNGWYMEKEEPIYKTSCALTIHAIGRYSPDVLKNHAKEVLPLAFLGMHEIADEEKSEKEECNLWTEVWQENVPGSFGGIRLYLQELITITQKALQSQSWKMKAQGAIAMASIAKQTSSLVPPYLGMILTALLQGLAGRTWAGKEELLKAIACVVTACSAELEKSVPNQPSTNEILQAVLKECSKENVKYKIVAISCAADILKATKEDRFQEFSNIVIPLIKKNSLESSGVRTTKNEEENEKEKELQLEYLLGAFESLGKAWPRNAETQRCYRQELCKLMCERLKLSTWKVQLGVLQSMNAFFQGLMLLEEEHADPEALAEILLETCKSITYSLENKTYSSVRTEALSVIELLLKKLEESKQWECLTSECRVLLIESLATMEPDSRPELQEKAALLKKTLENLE
UniProt P50570: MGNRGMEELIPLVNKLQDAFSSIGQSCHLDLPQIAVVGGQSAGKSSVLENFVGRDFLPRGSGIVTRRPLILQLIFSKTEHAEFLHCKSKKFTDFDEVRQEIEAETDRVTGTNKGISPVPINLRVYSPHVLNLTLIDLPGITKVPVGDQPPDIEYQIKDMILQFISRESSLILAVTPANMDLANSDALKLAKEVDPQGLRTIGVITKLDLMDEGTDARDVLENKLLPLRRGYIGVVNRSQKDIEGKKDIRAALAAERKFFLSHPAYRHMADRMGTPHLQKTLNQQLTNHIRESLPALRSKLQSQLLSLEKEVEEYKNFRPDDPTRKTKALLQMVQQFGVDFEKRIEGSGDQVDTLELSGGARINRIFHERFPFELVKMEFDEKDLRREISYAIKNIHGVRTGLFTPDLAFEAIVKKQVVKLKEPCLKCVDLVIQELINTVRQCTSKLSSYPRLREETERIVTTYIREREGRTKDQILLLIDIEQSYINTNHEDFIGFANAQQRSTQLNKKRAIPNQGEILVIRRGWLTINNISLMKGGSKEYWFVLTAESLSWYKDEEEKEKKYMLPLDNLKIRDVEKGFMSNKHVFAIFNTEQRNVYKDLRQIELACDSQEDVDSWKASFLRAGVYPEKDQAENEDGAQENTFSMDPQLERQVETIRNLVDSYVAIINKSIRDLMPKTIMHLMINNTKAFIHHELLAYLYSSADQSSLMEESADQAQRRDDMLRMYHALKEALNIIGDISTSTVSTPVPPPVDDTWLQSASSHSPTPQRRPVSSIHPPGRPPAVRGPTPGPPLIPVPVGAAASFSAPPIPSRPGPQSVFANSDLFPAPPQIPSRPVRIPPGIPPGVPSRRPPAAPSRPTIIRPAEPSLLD
UniProt Q99956: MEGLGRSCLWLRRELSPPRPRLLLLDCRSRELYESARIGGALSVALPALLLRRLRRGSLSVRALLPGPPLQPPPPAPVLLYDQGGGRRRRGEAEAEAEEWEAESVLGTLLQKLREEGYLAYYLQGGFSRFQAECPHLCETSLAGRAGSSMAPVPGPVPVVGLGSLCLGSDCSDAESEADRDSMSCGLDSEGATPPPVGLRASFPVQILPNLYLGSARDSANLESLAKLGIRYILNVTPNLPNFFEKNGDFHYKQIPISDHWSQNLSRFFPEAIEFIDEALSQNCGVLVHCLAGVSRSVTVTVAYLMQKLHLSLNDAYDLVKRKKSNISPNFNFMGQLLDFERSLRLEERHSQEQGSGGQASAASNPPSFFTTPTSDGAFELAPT
UniProt Q99704: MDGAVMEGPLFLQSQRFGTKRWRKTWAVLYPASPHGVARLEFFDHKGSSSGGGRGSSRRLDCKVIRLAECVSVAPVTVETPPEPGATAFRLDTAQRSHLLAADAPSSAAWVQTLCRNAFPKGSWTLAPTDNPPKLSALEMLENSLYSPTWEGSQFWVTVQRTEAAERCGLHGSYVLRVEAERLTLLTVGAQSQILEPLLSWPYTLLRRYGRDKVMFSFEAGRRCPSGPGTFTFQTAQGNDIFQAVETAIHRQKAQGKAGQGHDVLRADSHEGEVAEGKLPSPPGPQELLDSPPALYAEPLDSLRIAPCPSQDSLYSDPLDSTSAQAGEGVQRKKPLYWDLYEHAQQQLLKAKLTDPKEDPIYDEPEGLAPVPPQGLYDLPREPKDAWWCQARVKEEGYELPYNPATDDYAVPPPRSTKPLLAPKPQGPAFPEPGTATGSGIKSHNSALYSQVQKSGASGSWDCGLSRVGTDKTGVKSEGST
UniProt Q96EV8: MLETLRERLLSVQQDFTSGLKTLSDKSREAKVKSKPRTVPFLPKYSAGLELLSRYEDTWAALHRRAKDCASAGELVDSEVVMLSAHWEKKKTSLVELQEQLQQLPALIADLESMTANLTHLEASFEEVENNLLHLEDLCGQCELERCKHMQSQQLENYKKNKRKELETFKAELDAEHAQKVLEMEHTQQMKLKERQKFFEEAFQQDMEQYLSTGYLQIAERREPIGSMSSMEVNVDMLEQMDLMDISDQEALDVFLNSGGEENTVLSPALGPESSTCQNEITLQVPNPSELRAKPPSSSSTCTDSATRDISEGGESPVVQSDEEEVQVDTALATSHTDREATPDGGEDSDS
UniProt Q9H2P9: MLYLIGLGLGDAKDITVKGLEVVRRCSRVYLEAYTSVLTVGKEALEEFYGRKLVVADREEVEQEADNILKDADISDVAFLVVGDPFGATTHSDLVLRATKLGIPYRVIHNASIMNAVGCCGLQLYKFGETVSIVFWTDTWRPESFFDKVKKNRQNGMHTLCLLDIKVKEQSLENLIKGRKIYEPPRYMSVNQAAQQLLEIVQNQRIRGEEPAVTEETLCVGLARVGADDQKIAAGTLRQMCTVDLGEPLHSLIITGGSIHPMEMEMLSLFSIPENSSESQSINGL
UniProt Q6XUX3: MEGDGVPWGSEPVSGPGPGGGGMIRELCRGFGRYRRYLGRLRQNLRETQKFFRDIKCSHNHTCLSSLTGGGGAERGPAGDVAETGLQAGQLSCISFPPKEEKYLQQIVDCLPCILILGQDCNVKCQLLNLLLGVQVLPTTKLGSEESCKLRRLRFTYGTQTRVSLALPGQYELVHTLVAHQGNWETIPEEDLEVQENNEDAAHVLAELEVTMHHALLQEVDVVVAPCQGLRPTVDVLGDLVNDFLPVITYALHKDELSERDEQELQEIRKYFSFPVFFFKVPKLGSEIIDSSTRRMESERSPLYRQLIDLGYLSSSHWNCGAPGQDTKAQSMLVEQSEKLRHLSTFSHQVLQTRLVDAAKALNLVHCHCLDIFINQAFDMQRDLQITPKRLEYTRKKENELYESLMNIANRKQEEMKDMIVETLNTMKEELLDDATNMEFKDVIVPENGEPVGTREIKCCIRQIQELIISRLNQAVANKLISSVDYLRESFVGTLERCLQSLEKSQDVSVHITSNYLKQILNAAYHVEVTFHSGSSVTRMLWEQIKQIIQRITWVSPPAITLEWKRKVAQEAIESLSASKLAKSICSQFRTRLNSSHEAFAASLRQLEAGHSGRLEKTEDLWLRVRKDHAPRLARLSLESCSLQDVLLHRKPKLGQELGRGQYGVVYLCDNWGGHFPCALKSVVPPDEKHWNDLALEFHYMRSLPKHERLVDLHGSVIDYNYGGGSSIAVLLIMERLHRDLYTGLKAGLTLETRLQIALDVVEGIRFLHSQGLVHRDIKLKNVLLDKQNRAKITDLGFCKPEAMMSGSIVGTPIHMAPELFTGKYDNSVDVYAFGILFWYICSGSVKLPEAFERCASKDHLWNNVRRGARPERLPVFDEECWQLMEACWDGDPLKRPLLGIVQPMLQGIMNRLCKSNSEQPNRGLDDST

Some of the results follow.

Compound in the first assay: CON(C)C(=O)N1N=C(c2cc(F)ccc2F)S[C@@]1(CCCN)c1ccccc1 [filanesib]
The assay can be described thus: log2 fold change, soluble protein after heating vs DMSO (PISA); higher = thermal stabilisation; K562 cells, 10 uM, 30 min; active = over 0.2 and 3.5 SD of the protein, either way, in both replicates (recomputed). The gist of the method:
(§1)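 Soluble protein was defined as the supernatant after 21,000xg for 90 min. It came from K562 cells at 2×10^6 cells/mL given 10 μM compound for 30 min, heated in aliquots for 3 min across 48°C-58°C, pooled, and extracted in PBS with 0.5% NP-40 at 4°C, and was quantified by TMTpro 16plex LC-MS/MS with equalised channel sums. Thermal stability against control samples, from duplicates, is reported as log2 fold change.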
As to DNAJC1 (UniProt Q96KC8), the log2 fold change was inactive: -0.138.

As to DNAJB1 (UniProt P25685), the log2 fold change was inactive: -0.013.

For the target EARS2 isoform 2 (UniProt Q5JPH6), the log2 fold change is inactive: -0.19.

Turning to ECPAS (UniProt Q5VYK3), the log2 fold change is inactive: -0.004.

As to DNPEP (UniProt C9JBE1), the log2 fold change is inactive: 0.123.

With DYNC1LI2 (UniProt O43237), the log2 fold change was inactive: 0.384.

For the target DNM2 isoform 4 (UniProt P50570), the log2 fold change is inactive: 0.021.

With DUSP9 (UniProt Q99956), the log2 fold change was inactive: 0.017.

For the target DOCK8 (UniProt Q8NF50), the log2 fold change is inactive: 0.464.

For DTYMK (UniProt P23919), the log2 fold change was inactive: -0.09.

With DOK1 (UniProt Q99704), the log2 fold change was inactive: -0.1.

EDRF1 (UniProt Q3B7T1): the log2 fold change was inactive: 0.052.

For DUS3L (UniProt Q96G46), the log2 fold change was inactive: 0.018.

For DNM2 (UniProt P50570), the log2 fold change was inactive: -0.107.

As for DYRK1A isoform 2 (UniProt Q13627), the log2 fold change is inactive: 0.01.

Take DYNC1I2 isoform 5 (UniProt Q13409): the log2 fold change is inactive: 0.003.

DTNBP1 (UniProt Q96EV8): the log2 fold change is inactive: -0.115.

Take DNAJB14 (UniProt Q8TBM8): the log2 fold change is inactive: 0.014.

Take EEA1 (UniProt Q15075): the log2 fold change is inactive: -0.012.

As to DPH5 isoform 5 (UniProt Q9H2P9), the log2 fold change was inactive: -0.024.

As for DNAJC5 (UniProt Q9H3Z4), the log2 fold change was inactive: -0.011.

On to EDEM2 (UniProt Q9BV94), for which the log2 fold change is inactive: -0.03.

As for EBNA1BP2 (UniProt Q99848), the log2 fold change is inactive: 0.686.

Turning to DNAJC24 (UniProt Q6P3W2), the log2 fold change was inactive: 0.199.

Compound in the next assay: CO[C@H]1C[C@@H]2CC[C@@H](C)[C@@](O)(O2)C(=O)C(=O)N2CCCC[C@H]2C(=O)O[C@H]([C@H](C)C[C@@H]2CC[C@H](n3cnnn3)[C@H](OC)C2)CC(=O)[C@H](C)/C=C(\C)[C@@H](O)[C@@H](OC)C(=O)[C@H](C)C[C@H](C)/C=C/C=C/C=C/1C [zotarolimus]
Described as above. The gist of the method: as §1
For the target DNAJC1 (UniProt Q96KC8), the log2 fold change was inactive: -0.039.

Turning to DXO (UniProt O77932), the log2 fold change was inactive: -0.056.

On to DNPH1 (UniProt H0Y8X4), for which the log2 fold change was inactive: -0.017.

Regarding DNAJB1 (UniProt P25685), the log2 fold change is inactive: 0.007.

On to DSTYK (UniProt Q6XUX3), for which the log2 fold change is inactive: -0.142.

Consider ECPAS (UniProt Q5VYK3), for which the log2 fold change was inactive: 0.033.

Consider DYNC1LI2 (UniProt O43237), for which the log2 fold change was inactive: 0.005.

As to DNM2 isoform 4 (UniProt P50570), the log2 fold change was inactive: 0.273.

On to DOCK8 (UniProt Q8NF50), for which the log2 fold change is inactive: 0.083.

Consider DTYMK (UniProt P23919), for which the log2 fold change is inactive: -0.023.

As for DOK1 (UniProt Q99704), the log2 fold change was inactive: -0.057.

As to DNAL1 (UniProt Q4LDG9), the log2 fold change was inactive: 0.024.

As for EDRF1 (UniProt Q3B7T1), the log2 fold change was active: 0.419.

Consider DUS3L (UniProt Q96G46), for which the log2 fold change was inactive: 0.001.

Regarding DNM2 (UniProt P50570), the log2 fold change is inactive: 0.016.

In the case of DYRK1A isoform 2 (UniProt Q13627), the log2 fold change is inactive: 0.023.

With DYNC1I2 isoform 5 (UniProt Q13409), the log2 fold change is inactive: 0.025.

For DTNBP1 (UniProt Q96EV8), the log2 fold change is inactive: -0.009.

With DNAJB14 (UniProt Q8TBM8), the log2 fold change is inactive: 0.046.

As for EEA1 (UniProt Q15075), the log2 fold change was inactive: -0.028.

Regarding DPH5 isoform 5 (UniProt Q9H2P9), the log2 fold change is inactive: -0.002.

Consider DUSP14 (UniProt O95147), for which the log2 fold change is inactive: 0.035.

Take EDEM2 (UniProt Q9BV94): the log2 fold change was inactive: 0.022.

On to EBNA1BP2 (UniProt Q99848), for which the log2 fold change is inactive: 0.069.

Take DNAJC24 (UniProt Q6P3W2): the log2 fold change is inactive: 0.004.
